PubChem BioAssay AID743402 (Broad Institute, 2014)
The campaign covered roughly 1,200 compounds. About 140 (12%) were called active.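 How the source made its calls: active means fitted curve falls past -35% activity change at a dose under twice the top valid dose, in every replicate test; inconclusive means replicate tests disagree on the call; inactive means the rest, including activity in the opposite direction.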 Most of the strongest results are missing from this list.

Test: restoration of mutant CFTR halide transport – FRT cells, YFP quenching, cherry-pick, dose response (AID 743402);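 further: compounds act as correctors raising surface CFTR-F508del before acute activation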
Details: FRT CFTR-F508del YFP iodide quenching, 24 h, channel opened with forskolin and a potentiator; at 26 µM (top of the series) unless noted

Activity change, negative = more quenching (active), inactive:
O=C(CSC1=NNC(c2ccccn2)S1)Nc1ccccc1 (stereo not given) 16.2%, CCc1ccc(-c2nc(C(N)=O)c3[nH]c(=O)n(-c4ccccc4OC)c3n2)cc1 -12.9%, O=C1C=CCC(/C=C/c2ccccc2)O1 (stereo not given) 16.7%, Cc1ccc(NC(=O)CSC2=NN3CCCC(=O)N=C3S2)c(C)c1 13.3%, CCCCNC(=O)c1onc(CSc2ccccc2C)c1C(=O)O 6.67%, COc1ccccc1/C=N/NC(=O)c1cc2c(OC)c(OC)ccc2[nH]1 20%, COc1ccc(NC(=O)N(C)C[C@@H]2Oc3cc(C#CCC(C)C)ccc3S(=O)(=O)N([C@H](C)CO)C[C@@H]2C)cc1 19.4%, Nc1nn(-c2ccccc2)c(N)c1N=Nc1cccc(F)c1 -3.33%, O=C(NNC(=O)c1ccncc1)Nc1ccc(Cl)cc1 7.42%, N#Cc1ncn(C2OC(CO)C(O)C2O)c1N (stereo not given) 3.33%, COc1cc(/C=C2\SC(=S)N(NC(=O)c3ccncc3)C2=O)ccc1O -30%, O=C(NCCN1C(=O)S/C(=C\c2ccc(OC(F)F)cc2)C1=O)c1cnccn1 3.33%, Clc1cccc(-c2ccc(C=Nc3ccc(N4CCOCC4)cc3)o2)c1Cl 3.33%, Nc1ccccc1C(=O)N1O[C@@H]2C=C[C@H]1C2 4.84%, O=S(=O)(Nc1ccc(F)cc1Cl)c1ccc(-c2cnc(C3CC3)o2)cc1 -22.5%, Cn1c(C(=O)c2ccccc2[N+](=O)[O-])nc2ccccc21 -22.1%, C[C@H]1CN([C@@H](C)CO)S(=O)(=O)c2ccc(C#Cc3ccc(F)cc3)cc2O[C@H]1CN(C)C(=O)NC1CCCC1 10.7%, CCCNC(=O)N1CC2(CN(S(=O)(=O)c3cccc(OC)c3)C2)c2c(n(C)c3cc(OC)ccc23)[C@H]1CO 12.3%, COc1ccc(C(=O)Nc2ccc(NC(=O)c3cccc(F)c3)cn2)cc1 8.01%, CCCC(=O)NC(c1ccc(Cl)cc1)c1ccc2cccnc2c1O (stereo not given) 3.12%, O=C(Cc1ccc(Cl)cc1)OCC(=O)c1ccc[nH]1 3.12%, CCOC(=O)c1oc2ccc(S(=O)(=O)n3nc(-c4ccccc4)cc3N)cc2c1C 5.42%, C[C@H]1CN([C@@H](C)CO)S(=O)(=O)c2ccc(C#Cc3cccc(F)c3)cc2O[C@H]1CN(C)C(=O)NC1CCCCC1 13.6%, Cc1cccc(NC(=O)c2ccccc2NC(=O)C2CCCCC2)c1C -6.67%, CCCCNc1c(-c2ccc(SC(C)CC)c(OC)c2)nc2ccc(C)cn12 (stereo not given) 12.9%, COc1ccc(NC(=O)c2cc(C3CC3)on2)c(OC)c1 10%, COc1ccc(-c2cc(C(F)F)n3ncc(C(=O)N4CCc5ccccc54)c3n2)cc1 -16.7%, Cc1nc(N)[nH]c(=O)c1CCCNS(=O)(=O)c1ccc([N+](=O)[O-])cc1 11.5%, O=C(Cc1ccc(Br)cc1)NCc1ccccc1 -3.12%, O=C(N/N=C/c1c(O)ccc2ccccc12)C(=O)N1CCCC1 3.33%, Cc1cc2c(cc1C)C(c1ccccc1OC(C)C)CC(=O)N2 (stereo not given) 8.01%, Cc1ccc(-c2ccc3c(c2)O[C@H](CN(C)Cc2ccccn2)[C@@H](C)CN([C@@H](C)CO)S3(=O)=O)cc1 3.57%, COc1ccc2c3c(n(C)c2c1)[C@H](CO)N(C(=O)C1CC1)CC31CCN(Cc2cccc(F)c2)CC1 -7.14%, Cc1c(C)c2c(OCC(=O)N3CCC(O)CC3)cc3c(c2oc1=O)CCC(C)(C)O3 13.1%, Cc1cc2nnc(SCC(=O)NCc3ccco3)n2c2ccccc12 10%, Cc1ccc2nc(-c3ccc4c(c3)OCCO4)cn2c1 -13.3%, C[C@H]1CN([C@@H](C)CO)S(=O)(=O)c2ccc(C#CC3CCCCC3)cc2O[C@H]1CN(C)Cc1cccnc1 0%, COc1cc(C(=O)Nc2ccc(C)cc2)c2ccccc2n1 -1.61%, Cn1cc(C(=O)N/N=C/c2ccc3c(c2)OCO3)c2ccccc21 -10%, CC(=NNC(=S)Nc1ccc(C)cc1)c1ccccn1 -3.12%, N=C1/C(=C/c2cccn2CCOc2ccccc2)C(=O)N=C2SC=C(c3ccccc3)N12 -19.4%, O[Si](CCCN1CCCCC1)(c1ccc(F)cc1)C1CCCCC1 (stereo not given) 0%, C[C@H](CO)N1C[C@H](C)[C@H](CN(C)C(=O)NC2CCCC2)Oc2cc(C#Cc3ccc(F)cc3)ccc2S1(=O)=O -7.14%, CC(C)c1ccc(NC(=O)CN2C(=O)NC3(CCCCCCC3)C2=O)cc1 9.79%, CCOc1ccccc1NC(=O)CC1SC(=N)N(c2ccccc2)C1=O (stereo not given) 12.9%, CCOC(=O)N1CCC(NC(=O)c2ccc3c(c2)N=C(C)c2c(C)ccc(C)c2S3)CC1 3.12%, COCC(C)n1c(SCC(=O)N2CC(=O)Nc3ccccc32)nc2ccccc2c1=O (stereo not given) 3.33%, O=C(NN=C1CCCC1)c1[nH]c2ccc(Cl)cc2c1-c1ccccc1 16.7%, COc1cc(C(c2sc3nc(C)nn3c2O)N2CCN(c3ccccc3)CC2)cc(OC)c1OC (stereo not given) 0%, COc1ccc(O)c(/C=N/NC(=O)c2ccc(N3CCCC3=O)cc2)c1 3.33%, Oc1ccc2ccccc2c1C=NNc1ccccn1 -13.3%, C[C@@H]1CN([C@@H](C)CO)S(=O)(=O)c2ccc(C#Cc3ccc(F)cc3)cc2O[C@H]1CN(C)C(=O)c1ccccn1 22.9%, CC1(C)Cc2c(c(-c3ccco3)nc3sc4c(NCCN5CCOCC5)ncnc4c23)CO1 -6.67%, CCC(=O)N1[C@H](CN(CC)C(C)=O)[C@@H](c2ccc(-c3ccccc3)cc2)[C@@H]1CO 10.5% [at 23.5 µM], O=C(Nc1ccc(F)cc1)N1CCCCN2[C@H](C1)[C@H](c1ccc(-c3cccc(F)c3)cc1)[C@@H]2CO 6.46%
